According to PubChem BioAssay AID1487 (National Center for Advancing Translational Sciences (NCATS), 2009):
Screen size: about 200,000 compounds; about 25 (0.01%) were called active. The shares of active, inactive and inconclusive entries below differ from those in the screen. The call rests on the fitted dose curve; in most records, active means well fitted inhibition curve with a large enough effect in the signal ratio, with a control signal flat (not every such curve was filed as active); inconclusive means small, poorly fitted or top-dose-only effect, or effect the other way, or a change in a side signal; inactive means flat fitted curve, though single readings scatter; the % refers to the signal ratio. Potencies beside an inconclusive call are fits to weak or partial responses and may not hold up.

Test: qHTS Assay for Modulators of Lamin A Splicing
Details: HeLa LMNA splicing GFP/RFP minigene ratio, 48 h; ratio change, negative = inhibition: at 46.1 µM (top of the series) unless noted
How it was run: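 S3 HeLa cells stably expressing lamin A-EGFP splicing minigene plus DsRed2, 600 cells/well, 48 h compound exposure at 37C. Laser-scanning cytometry; analysed as GFP (500-530 nm)/RFP (575-640 nm) total intensity ratio; 0.5% DMSO vehicle.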
On the % scale 0 is the no-effect control and ±100 the full control effect; potency means the concentration at half of the fitted maximal effect.

SMILES | Potency | ratio change, negative = inhibition
CC(=O)C1=C(c2ccc(Br)cc2)N(C(C)=O)n2c(nnc2C2CCCCC2)S1 | inconclusive: 10 µM [inhibitor, partial curve] | –
COCCNC(=O)c1cccc(Nc2nc(-c3ccccc3)c3cc(Cl)ccc3n2)c1 | inconclusive: 10 µM [inhibitor, partial curve] | –
O=C(O)c1ccc2c(c1)C(=O)N(c1cccc(C(=O)/C=C/c3ccccc3)c1)C2=O | – | inconclusive: 22.4% [at 46 µM]
CC(=O)Nc1ccc(NC(=O)COc2ccccc2C(=O)Nc2cccc(Cl)c2Cl)cc1 | – | inconclusive: 4.5%
CN1C(=O)C2C(c3ccc(N(C)C)cc3)=NN(Cc3ccccc3)C2C1=O (centres undefined) | – | inconclusive: 12.7% [at 46 µM]
Cc1cc(C(=O)COC(=O)c2n[nH]c3ccccc23)c(C)n1C | – | inactive
C=CCn1c(SCCN2C(=O)c3ccccc3C2=O)nc2scc(-c3ccccc3)c2c1=O | – | inactive
CCOC(=O)c1c(CSc2ccccc2)n(C)c2cc(Br)c(OCC(O)CNC(CO)(CO)CO)cc12 (centres undefined) | – | inactive
CN(C)c1ccc(/C=C/C(=O)c2ccc(C(C)(C)C)cc2)cc1[N+](=O)[O-] | inconclusive: 14.1 µM [fluorescent, single point] | –
COc1cc(CC(=O)Nc2ccc(Cl)c(C(F)(F)F)c2)cc(OC)c1OC | – | inconclusive: -45.8%
O=C(O)c1cc(Sc2ccc(Br)cc2)nc2ccccc12 | – | inconclusive: -5.91% [at 46 µM]
O=C(CCCN1C(=O)/C(=C/c2cccs2)SC1=S)Nc1ccc(O)c(C(=O)O)c1 | – | inconclusive: 6.41% [at 46 µM]
Nc1c(C(=O)c2ccccc2)sc(Nc2ccccc2)c1S(=O)(=O)c1ccccc1 | – | inconclusive: -15.3%
Cc1nc2scc(-c3ccco3)c2c(=O)n1/N=C/N(C)C | – | inactive
COc1ccc(CNC(=O)CN(CCC(C)C)S(=O)(=O)c2ccc3c(c2)OCCO3)cc1 | inconclusive: 35.5 µM [falling, single point] | –
Cc1ccc(NC(=S)N(CCCN2CCOCC2)Cc2cccnc2)cc1C | – | inconclusive: -22.5% [at 46 µM]
CCOC(=O)/C(=C/C=C1\Sc2cc(OCC)c(OCC)cc2N1CC)C(C)=O | inconclusive: 10 µM [cytotoxic, partial curve] | –
CCOC(=O)N1CCC(=NNc2ccnc3cc(Cl)ccc23)CC1 | – | inconclusive: -17.1% [at 46 µM]
O=C(Cc1ccccc1)Nc1nnc(SCC(=O)NC2CCCC2)s1 | – | inconclusive: 8.04% [at 46 µM]
CN(C)C(=O)c1ccc(-c2ccc3ncnc(NCc4cccs4)c3c2)cc1 | inconclusive: 22.4 µM [inhibitor, single point] | –
Cc1nc(N2CCCC2)ncc1C(=O)N1CCN(c2ccc(Cl)cc2)CC1 | – | inconclusive: -9.28% [at 46 µM]
O=C(CSc1nc2c([nH]c3ccccc32)c(=O)n1-c1ccc(Cl)cc1)N1CCCCCC1 | – | inconclusive: 32.3% [at 46 µM]
Cc1cc(=O)oc2cc(OCC(=O)OCc3nnc(-c4ccccc4)o3)ccc12 | – | inactive
COCCNC(=O)CSc1nc2cc3c(cc2c(=O)n1Cc1ccc(C(=O)NCCc2ccc(OC)c(OC)c2)cc1)OCO3 | inconclusive: 35.5 µM [cytotoxic, single point] | –
Brc1cccc(/C=N/Nc2nc(N3CCCCC3)nc(N3CCCCC3)n2)c1 | – | inconclusive: 22.1% [at 46 µM]
Cc1cc(N)n(-c2ncnc3scc(-c4ccc(Cl)cc4)c23)n1 | – | inactive
Cc1ccc(C(=O)/C=C/Nc2ccccc2C(N)=O)o1 | – | inconclusive: 6.42%

SMILES | Potency | ratio change, negative = inhibition
O=C1Nc2c(Br)cc(Br)c3cccc1c23 | – | inconclusive: -5.48% [at 9.22 µM]
COC(=O)c1cc(N=CC2=C(O)CC(C)(C)CC2=O)cc(C(=O)OC)c1 | – | inactive
Cc1nnc(SCC(=O)NC2CCS(=O)(=O)C2)n1Cc1ccccc1 (centres undefined) | – | inconclusive: -25.6% [at 46 µM]
Cc1ccc2cc(C(c3nnnn3C3CCCC3)N3CCN(c4ccc(F)cc4)CC3)c(=O)[nH]c2c1 (centres undefined) | – | inactive
Cc1ccc(C(=O)Nc2nnc(S(=O)(=O)N3CCN(c4ccc(F)cc4)CC3)s2)cc1 | – | inconclusive: -6.58% [at 46 µM]
COCCCNC(=O)c1cnn(-c2ccc(F)cc2F)c1C1CCNCC1 | – | inactive
Cc1ccc2scc(N3CCCCC3)c(=O)c2c1 | – | inconclusive: 21.8% [at 46 µM]
O=Cc1ccc(OCC(=O)Nc2ccccc2C(F)(F)F)cc1 | – | inconclusive: 8.27% [at 46 µM]
CSc1nc(N)c2ncn([C@@H]3O[C@H](COP(=O)(O)OP(=O)(O)OP(=O)(O)O)[C@H](O)[C@H]3O)c2n1 | – | inconclusive: -7.92%
COc1ccc(S(=O)(=O)NCC2CCCN(C(=O)c3occc3C)C2)cc1 (centres undefined) | – | inactive
CCc1c(C)nc2ncnn2c1N1CCCC(C(=O)Nc2ccc(NC(C)=O)cc2)C1 (centres undefined) | – | inactive
CCOCCCn1c(SC(C(=O)Nc2cc(C)ccc2C)c2ccccc2)nnc1-c1ccc(Cl)cc1 (centres undefined) | – | inconclusive: -11.7%
CO/N=C(/C(=O)N[C@@H]1C(=O)N2C(C(=O)O)=C(COC(N)=O)CS[C@H]12)c1ccco1 | – | inconclusive: -20.9%
COc1cccc(NC(=O)c2sc3nc4n(c(=O)c3c2C)CCC4)c1 | inconclusive: 12.6 µM [inhibitor, single point] | –
CCSc1nnc(NC(=O)c2csc3c2CCC(C)C3)s1 (centres undefined) | – | inactive
COc1ccc2[nH]c(=O)c(CN(Cc3ccco3)C(c3nnnn3Cc3ccccc3)C(C)C)cc2c1 (centres undefined) | – | inconclusive: 32.9%
CN(c1ccccc1)S(=O)(=O)c1ccc(C(=O)Nc2nnc(-c3ccco3)o2)cc1 | – | inconclusive: -31.1% [at 9.22 µM]
Cc1ccccc1N1CCN(S(=O)(=O)N(C)C)CC1 | – | inconclusive: 8.54% [at 46 µM]
Cc1cc(C)c2c(=O)[nH]c(SCC(=O)Nc3ccccc3)nc2n1 | – | inconclusive: -42.5%
CO[C@]1(NC(=O)Cc2cccs2)C(=O)N2C(C(=O)O)=C(COC(N)=O)CS[C@H]21 | – | inconclusive: -8.34%
O=S(=O)(CCSc1nc2ccccc2s1)c1nc2ccccc2s1 | inconclusive: 35.5 µM [cytotoxic, single point] | –
CC(C)Oc1ccc2c(=O)c(-c3ccccc3)coc2c1 | – | inconclusive: -11.9%
COc1ccccc1C(N)=S | – | inconclusive: 8.36%
COC(=O)C1CCN(c2ccc([N+](=O)[O-])cc2[N+](=O)[O-])CC1 | – | inconclusive: 37.2% [at 46 µM]
Cn1c(SCC(=O)Nc2ccc3cn[nH]c3c2)nnc1-c1cccs1 | – | inactive
COc1cc(/C=N/Nc2ncnc3sc4c(c23)CCC4)ccc1O | – | inconclusive: -26.9%
CCn1c2ccc(C)cc2c2nc3cc(C(=O)O)ccc3nc21 | – | inconclusive: 51.6%

SMILES | Potency | ratio change, negative = inhibition
CCCc1[nH]nc2c1C(c1ccc(O)c(OC)c1)C(C#N)=C(N)O2 (centres undefined) | – | inactive
CC1CCC(NC(=O)C(NC(=O)c2ccccc2)C(C)C)CC1 (centres undefined) | inconclusive: 0.0224 µM [rising, full curve] | –
COc1ccc(C(=O)Cn2ccsc2=NC(C)=O)cc1 | – | inactive: -12% [at 9.22 µM]
COc1ccc(NS(=O)(=O)c2ccc3nc(COc4ccc(C#N)cc4)[nH]c3c2)cc1 | inconclusive: 22.4 µM [fluorescent, single point] | –
COc1ccc2c(c1)c1ncn(CCCN3CCOCC3)c(=O)c1n2C | – | inactive
Cc1ccc(NC(=O)c2cc3c(=O)n(Cc4ccco4)ccc3nc2C)cc1C | – | inactive
CN1CCCCc2c1nc1c(c2N)CCCC1 | – | inconclusive: 8.39%
COc1ccc(-c2nnc3n(CCc4ccccc4)c(=O)c4ccccc4n23)cc1OC | – | inactive
Cc1cc(C)n(-c2nnc(NC34CC5CC(CC(C5)C3)C4)nn2)n1 | – | inconclusive: -27.5%
CC(=O)N(C)c1ccc(NC(=O)Nc2ccccc2C)cc1 | – | inconclusive: -7.7% [at 46 µM]
Cc1nnc(SCC(=O)NC2CCCCC2)s1 | – | inactive
COC(=O)c1c(Oc2nc(OC)cc(OC)n2)cccc1Oc1nc(OC)cc(OC)n1 | – | inconclusive: 2.47%
COc1ccc(/C=N/Nc2nc3ccccc3s2)cc1O | – | inconclusive: -19.5% [at 46 µM]
CC(C)(C)C(=O)NC(=S)Nc1sc2c(c1C#N)CCCCC2 | – | inactive
CC1=C(C(=O)Nc2ccccc2Cl)C(c2ccc(N(C)C)cc2)NC(=O)N1 (centres undefined) | – | inconclusive: 18.1%
Cc1cc(C)cc(-n2c(C)nc3cc(C(=O)NCc4ccccc4Cl)ccc32)c1 | – | inactive
CC1CC(=O)N(CC(=O)NCc2ccco2)c2ccccc2S1 (centres undefined) | – | inconclusive: 6.75%
CN(C)c1ccc(-c2nc(NC3CCNCC3)c3ccccc3n2)cc1 | inconclusive: 35.5 µM [cytotoxic, single point] | –
Cc1ccccc1CSCC(=O)NC1CCCC1 | – | inactive
Nc1nc(OCC(F)(F)F)cc(Oc2ccccc2F)n1 | – | inconclusive: 33.2%
N#Cc1ccsc1NC(=O)CCc1ccccc1 | – | inconclusive: 52% [at 46 µM]
Cc1ccc2cccc(Oc3ccc([N+](=O)[O-])cc3[N+](=O)[O-])c2n1 | – | inconclusive: 5.57%
CC(C)N(C(=O)Cc1ccccc1[N+](=O)[O-])C(C)C | – | inconclusive: 17.7% [at 46 µM]
O=C(CCCNS(=O)(=O)c1cccs1)N1CCN(c2cccc(Cl)c2)CC1 | inconclusive: 35.5 µM [fluorescent, single point] | –
COC/C=C/C1=CC2=CC(=O)C(C)(OC(=O)c3cnc4ccccc4n3)C(=O)C2=CN1Cc1ccc2c(c1)OCO2 (centres undefined) | – | inconclusive: -35% [at 9.22 µM]

An excerpt of these results, in markdown:

| SMILES | Potency | ratio change, negative = inhibition |
| --- | --- | --- |
| CCCc1[nH]nc2c1C(c1ccc(O)c(OC)c1)C(C#N)=C(N)O2 (centres undefined) | – | inactive |
| COc1ccc(NS(=O)(=O)c2ccc3nc(COc4ccc(C#N)cc4)[nH]c3c2)cc1 | inconclusive: 22.4 µM [fluorescent, single point] | – |
| CC1=C(C(=O)Nc2ccccc2Cl)C(c2ccc(N(C)C)cc2)NC(=O)N1 (centres undefined) | – | inconclusive: 18.1% |
| Cc1ccc2cccc(Oc3ccc([N+](=O)[O-])cc3[N+](=O)[O-])c2n1 | – | inconclusive: 5.57% |
| O=C(CCCNS(=O)(=O)c1cccs1)N1CCN(c2cccc(Cl)c2)CC1 | inconclusive: 35.5 µM [fluorescent, single point] | – |
